Test results from patent publication US20160289316A1 (STOWERS INSTITUTE FOR MEDICAL RESEARCH, published 2016).
No constants are given. Whether binding was seen depends on the method and setting. Some results given as binding are weak or reduced against the parent protein; the word gives no strength.

Sequences of proteins named here, by UniProt entry; tags and fusion partners are left off.
UniProt O75197: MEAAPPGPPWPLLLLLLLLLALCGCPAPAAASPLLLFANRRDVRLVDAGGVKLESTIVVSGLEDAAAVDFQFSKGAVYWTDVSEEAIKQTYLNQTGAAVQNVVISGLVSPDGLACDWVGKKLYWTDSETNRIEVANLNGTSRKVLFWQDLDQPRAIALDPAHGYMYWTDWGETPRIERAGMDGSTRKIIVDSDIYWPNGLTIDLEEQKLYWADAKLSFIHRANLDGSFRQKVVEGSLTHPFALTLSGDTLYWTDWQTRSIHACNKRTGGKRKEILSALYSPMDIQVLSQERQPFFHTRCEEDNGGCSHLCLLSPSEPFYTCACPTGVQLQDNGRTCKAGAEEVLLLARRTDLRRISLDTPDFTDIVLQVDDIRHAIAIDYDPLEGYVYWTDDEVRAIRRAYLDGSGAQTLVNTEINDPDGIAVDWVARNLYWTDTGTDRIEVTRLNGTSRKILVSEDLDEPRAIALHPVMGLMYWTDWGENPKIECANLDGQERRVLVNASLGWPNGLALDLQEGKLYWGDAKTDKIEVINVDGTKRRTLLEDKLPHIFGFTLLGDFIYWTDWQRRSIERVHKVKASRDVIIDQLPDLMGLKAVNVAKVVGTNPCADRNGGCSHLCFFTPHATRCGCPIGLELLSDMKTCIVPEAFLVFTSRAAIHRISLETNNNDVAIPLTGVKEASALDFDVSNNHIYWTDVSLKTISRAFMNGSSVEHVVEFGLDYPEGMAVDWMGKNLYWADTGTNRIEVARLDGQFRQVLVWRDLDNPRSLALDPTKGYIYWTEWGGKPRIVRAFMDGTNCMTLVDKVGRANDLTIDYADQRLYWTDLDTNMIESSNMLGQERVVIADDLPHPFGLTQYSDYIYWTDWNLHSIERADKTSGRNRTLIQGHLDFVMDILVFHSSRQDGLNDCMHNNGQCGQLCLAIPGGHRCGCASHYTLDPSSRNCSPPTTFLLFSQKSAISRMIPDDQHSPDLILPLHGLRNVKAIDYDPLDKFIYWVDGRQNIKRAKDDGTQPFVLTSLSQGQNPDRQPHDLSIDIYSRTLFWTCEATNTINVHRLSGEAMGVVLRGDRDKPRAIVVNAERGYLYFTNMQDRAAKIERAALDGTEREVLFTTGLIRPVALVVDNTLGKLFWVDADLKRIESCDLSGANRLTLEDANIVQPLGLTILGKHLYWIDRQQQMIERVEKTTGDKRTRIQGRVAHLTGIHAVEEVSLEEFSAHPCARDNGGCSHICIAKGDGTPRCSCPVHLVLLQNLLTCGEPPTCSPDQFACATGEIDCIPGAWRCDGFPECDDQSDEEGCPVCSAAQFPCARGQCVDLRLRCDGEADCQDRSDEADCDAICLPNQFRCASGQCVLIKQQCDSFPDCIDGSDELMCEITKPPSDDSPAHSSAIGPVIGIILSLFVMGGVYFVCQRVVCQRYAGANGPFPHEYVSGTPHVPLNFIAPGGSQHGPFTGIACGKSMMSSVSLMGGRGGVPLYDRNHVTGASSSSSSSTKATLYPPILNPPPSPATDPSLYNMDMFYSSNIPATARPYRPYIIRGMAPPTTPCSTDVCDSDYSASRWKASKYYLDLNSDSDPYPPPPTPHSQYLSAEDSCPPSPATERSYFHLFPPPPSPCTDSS

Key:
LRP5-Myc (human) [1] = molecular target: LRP5-Myc (human) (UniProt O75197); experiment: immunoprecipitation (FIG. 2H)
LRP5-Myc (human) [2] = molecular target: LRP5-Myc (human) (UniProt O75197); experiment: immunoprecipitation
LRP5-Myc (human) [3] = molecular target: LRP5-Myc (human) (UniProt O75197); experiment: immunoprecipitation, anti-Flag M2 affinity gel, 293 cell supernatants (FIG. 2H)

Measured: binding

B1: SOST-Flag (ligand, mouse, UniProt Q99P68 24-211, looked up)
chain: QGWQAFRNDATEVIPGLGEYPEPPPENNQTMNRAENGGRPPHHPYDAKDVSEYSCRELHYTRFLTDGPCRSAKPVTELVCSGQCGPARLLPNAIGRVKWWRPNGPDFRCIPDRYRAQRVQLLCPGGAAPRSRKVRLVASCKCKRLTRFHNQSELKDFGPETARPQKGRKPRPGARGAKANQAELENAY
notes: mature; This entry was not used because neither its species nor its tie to the assay construct is stated; also called pCS2+SOST; not shown: Flag tag at the 3' end of the reading frame
binds: LRP5-Myc (human) [1] | LRP5-Myc (human) [2] | LRP5-Myc (human) [3]
